PubChem BioAssay AID2685 (National Center for Advancing Translational Sciences (NCATS), 2010)
The whole screen tested about 320,000 compounds, of which about 2,100 (0.66%) were called active. This list was built around the results that the source calls inconclusive (neither active nor inactive); the mix of calls is not that of the screen. Calls follow the shape of the dose curve; as a rule, active = well fitted inhibition curve with a large enough effect in the signal ratio, with a control signal flat (not every such curve was filed as active); inconclusive = small, poorly fitted or top-dose-only effect, or effect the other way, or a change in a side signal; inactive = flat fitted curve, though single readings scatter; the % refers to the signal ratio. Where the call is inconclusive, the potency comes from a doubtful curve fit.

Experiment: qHTS Assay for Lipid Storage Modulators in Drosophila S3 Cells
Conditions: BODIPY lipid droplet fluorescence, 18-24 h, cells fed with added oleic acid; lipid storage change, negative = inhibition: at 46.1 µM (top of the series) unless noted
Method in brief: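 Drosophila S3 cells loaded with oleic acid (400 uM, as added) and compounds at several concentrations; lipid droplets imaged by 488-nm laser-scanning cytometry, 500–530 nm intensity and object ratio to cell channel. Percent activity normalized to 20 uM Triacsin C.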
% is scaled to controls: 0 for no effect and ±100 for the full control effect; potency is read from the fitted curve at half-maximal effect.

| Structure (SMILES) | lipid storage change, negative = inhibition | Potency |
| --- | --- | --- |
| Cc1occc1C(=O)N/N=C/C=C/c1ccccc1 | inconclusive: 1.14% | – |
| Cc1ccc(C(=O)C(SC(C)(C)C)n2cncn2)cc1 (stereo not drawn) | inconclusive: 16.7% | – |
| O=C(Nc1cc(C(F)(F)F)ccc1Cl)c1ccc(NC(=O)C(F)(F)F)cc1 | – | inconclusive: 29.1 µM [cytotoxic, single point] |
| C/C(=N\OC(=O)c1ccc(F)cc1)c1ccc(F)c(F)c1 | inconclusive: -16.2% | – |
| O=S(=O)(Nc1cc(S(=O)(=O)N2CCOCC2)ccc1NCC1CCCO1)c1ccc(F)cc1 (stereo not drawn) | inconclusive: 15.9% | – |
| CCCc1cc2c(-c3ccccc3)cc(=O)oc2cc1OCc1ccc(C(=O)O)o1 | inconclusive: -5.74% | – |
| Fc1ccc(COc2ccc(/C=N/n3cnnc3)cc2)cc1 | – | inconclusive: 0.116 µM [activator, full curve, poor fit] |
| Cc1ccc(C)c(NC(=S)N/N=C2/CCCCc3ccccc32)c1 | – | inconclusive: 0.411 µM [activator, full curve, poor fit] |
| COc1ccc(NS(=O)(=O)c2cc(C(=O)Nc3ccccc3C(=O)O)ccc2C)cc1 | – | inconclusive: 6.51 µM [activator, single point] |
| N#Cc1ccccc1OCC(=O)Nc1ccc2c(c1)OCCO2 | inconclusive: 22.5% | – |
| CC(=O)c1cccc(OCC(=O)NC2CCCCCC2)c1 | inconclusive | – |
| COc1ccc(CN(C)C(=O)c2cccc(NS(=O)(=O)c3ccccc3)c2)c(OC)c1 | inconclusive: 14.2% | – |
| COc1ccc(/C=C/C(=O)NCCn2c(C)cc3ccccc32)cc1OC | – | inconclusive: 0.731 µM [activator, full curve] |
| CNC(=O)c1c[nH]n2c(=O)c(Cc3ccccc3F)c(C)nc12 | inconclusive: 10.8% | – |
| CSc1cccc(N/C(=N/S(=O)(=O)c2ccccc2)NN)c1 | inconclusive: 8.72% | – |
| COc1ccc(CCNC(=O)COc2ccc(S(=O)(=O)NC3CCCCC3)cc2Cl)cc1 | – | inconclusive: 29.1 µM [falling, single point] |
| O=C(OCC(=O)N1CCCCCC1)c1ccc([N+](=O)[O-])cc1Cl | inconclusive: -65.6% | – |
| CCCN(CC(=O)Nc1ccccc1OC)C(=O)C1CCCC1 | – | active: 3.66 µM |
| COc1ccc(CCN2CC(C(=O)NCCN3CCOC3=O)CCC2=O)cc1 (stereo not drawn) | – | inconclusive: 29.1 µM [activator, single point] |
| COc1ccc(N(Cc2cc3ccccc3[nH]c2=O)S(C)(=O)=O)cc1 | inconclusive: 33.6% | – |
| COc1ccc(C2C(C#N)=C(N)Oc3cc(O)ccc32)cc1C (stereo not drawn) | inconclusive: 334% | – |
| COc1ccc2oc(=O)cc(C)c2c1 | inconclusive: 50.8% [activator] [at 0.0737 µM] | – |
| Cc1cc(C(=O)O)ccc1[N+](=O)[O-] | – | inconclusive: 0.092 µM [falling, single point] |
| O=S(=O)(Nc1ccc(S(=O)(=O)Nc2ccccc2)cc1)c1ccccc1 | inconclusive: -46.4% | – |

Exported with each value named: part of the list above
Cc1occc1C(=O)N/N=C/C=C/c1ccccc1
  lipid storage change, negative = inhibition: inconclusive: 1.14%
COc1ccc(CN(C)C(=O)c2cccc(NS(=O)(=O)c3ccccc3)c2)c(OC)c1
  lipid storage change, negative = inhibition: inconclusive: 14.2%
COc1ccc(N(Cc2cc3ccccc3[nH]c2=O)S(C)(=O)=O)cc1
  lipid storage change, negative = inhibition: inconclusive: 33.6%
O=S(=O)(Nc1ccc(S(=O)(=O)Nc2ccccc2)cc1)c1ccccc1
  lipid storage change, negative = inhibition: inconclusive: -46.4%

(listing goes on)

| Structure (SMILES) | lipid storage change, negative = inhibition | Potency |
| --- | --- | --- |
| COc1ccc(S(=O)(=O)Nc2ccc(C(N)=O)cc2)cc1C(=O)N1CCCCCC1 | inconclusive: 12.1% | – |
| Cc1ccc(OCC(=O)Nc2ccccc2N2CCCC2)c(C)c1 | inconclusive: -21.3% | – |
| O=S(=O)(NCc1ccc(Cl)cc1)c1cccc2cccnc12 | inconclusive: 40.8% | – |
| Cc1ccc(Cn2ccsc2=NC(=O)COC(=O)C(C)C)cc1 | inconclusive: 14.7% | – |
| CCOc1ccc(S(=O)(=O)N2CCN(CC)CC2)cc1NC(=O)c1ccccc1F | – | inconclusive: 29.1 µM [rising, single point] |
| CC(C)CN(C(=O)COC(=O)C12CC3CC(CC(Cl)(C3)C1)C2)c1c(N)n(Cc2ccccc2)c(=O)[nH]c1=O | inconclusive: 48.1% [at 0.0737 µM] | – |
| O=C(COc1ccc(Cl)cc1)c1ccc(O)cc1O | inconclusive: -20.6% | – |
| O=C(Nc1ccc(NC(=O)c2ccccc2)nc1)c1ccncc1 | – | inconclusive: 6.51 µM [falling, single point] |
| Cc1ccccc1NC(=O)Cc1nc(CCl)cs1 | inconclusive: 16.6% | – |
| Cc1ccc(OCc2cc(C(=O)N3CCc4sccc4C3)no2)cc1C | inconclusive: 32.2% | – |
| Cn1c(CSc2nc3ccc(Br)cc3[nH]2)nc2ccccc21 | – | inconclusive: 0.291 µM [activator, full curve, poor fit] |
| NC(=O)C1CCCN(C(=O)c2ccc3oc(Cc4ccc(Cl)cc4)nc3c2)C1 (stereo not drawn) | – | inconclusive: 23.1 µM [activator, single point] |
| CS(=O)(=O)N1CCC(C(=O)c2cccc(Cl)c2)CC1 | inconclusive: -38.7% | – |
| CCOC(=O)c1cc2ccccc2n1CCN(CC)CC | inconclusive: 14.5% | – |
| CC(=O)N1CCCc2cc(S(=O)(=O)Nc3ccccc3C)ccc21 | – | inconclusive: 9.2 µM [activator, single point] |
| O=C(O)COc1ccccc1/C=N/NC(=O)c1cc(-c2ccc(Cl)cc2)nc2ccccc12 | inconclusive: 26.8% | – |
| O=C(CSc1ccsc1[N+](=O)[O-])N1CCN(c2ccccc2)CC1 | – | inconclusive: 0.0065 µM [activator, full curve, poor fit] |
| CCc1ccc(S(=O)(=O)N/N=C(/C)c2ccncc2)cc1 | – | inconclusive: 2.91 µM [activator, single point] |
| COc1ccc(/C=N/NC(=O)COc2cccc3ccccc23)c(C(=O)O)c1OC | inconclusive: -18.8% | – |
| COc1ccc(C)cc1NC(=O)c1cc2ccccc2cc1OCC(=O)NCc1ccco1 | inconclusive: 264% | – |
| COc1ccc(CC(=O)N/N=C/c2ccc(-c3cccc(C(=O)O)c3)o2)cc1OC | inconclusive: -6.03% | – |
| CCOc1ccccc1NC(=O)Nc1ccncc1 | inconclusive: -30.2% [at 0.00295 µM] | – |
| O=C(O)c1cccc(S(=O)(=O)Nc2ccccc2Cc2ccccc2)c1 | inconclusive: -100% | – |
| COc1ccc(-c2c(NC(=O)c3ccco3)oc3ccccc3c2=O)cc1OC | – | inconclusive: 3.66 µM [activator, partial curve, poor fit] |
